Earlier results as cited in patent publication US9688664B2, “Modulators of fatty acid amide hydrolase” (JANSSEN PHARMACEUTICA NV, priority 2010, dated 2017).
Read-outs that look alike come from different tables or passages of the source. At least one compound was matched to its structure with a doubt left.

How the values were obtained:
rats [1] = details: cited from earlier work
rats [2] = details: cited from earlier work; remark: listed apart in the source

Cc1nc(-c2ccccc2)c(-c2ccccc2)n1CCCCCCNC(=O)Oc1ccccc1F [BMS-1]
analgesic effect (rats [1]): analgesic effect | analgesic effect (rats [2]): analgesic effect
